Assay results from US20240082172A1, “METHOD FOR DEPOT CREATION DURING TRANSDERMAL DRUG DELIVERY” (Corium, Inc., priority 2017, published 2024).

Conditions: human cadaver skin, FIG. 2

## COc1cc2c(cc1OC)C(=O)C(CC1CCN(Cc3ccccc3)CC1)C2 (stereo not drawn) [Donepezil, 2,3-Dihydro-5,6-dimethoxy-2-[[1-(phenylmethyl)-4-piperidinyl]methyl]-1H-inden-1-one]
Patch of Example 7 adhesive matrix (5 cm^2), 32° C., at end of 48 hour patch contact
  skin flux of donepezil: about 6.0 μg/cm^2·hr
Patch of Example 7 adhesive matrix, by just over 72 hours, patch removed at 48 hours
  flux of donepezil through the skin: about 2.0 μg/cm^2·hr
Patch of Example 7 adhesive matrix, patch removed at the 48 hour time point
  period donepezil continued to be delivered across the skin after removal of the patch: 24 to 72 h
